The source of these data is PubChem BioAssay AID2685 (National Center for Advancing Translational Sciences (NCATS), 2010).

SMILES strings stand for the structures. This is one part of the list. Shown are side measurements of this screen, not its main read-out; they come without a call. Most of these compounds were active or inconclusive in the main read-out, so they are no random draw. Potencies come from curve fits of mixed quality, noted in brackets.

By AC50 is commonly meant the concentration at which the activity in the assay is half-maximal. A low value points to greater potency.

A short description of the assay: qHTS Assay for Lipid Storage Modulators in Drosophila S3 Cells.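 On cell number change: cells counted by Cell Tracker Red CMTPX staining in the red channel.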 Particulars: BODIPY lipid droplet fluorescence, 18-24 h; for cell number change: measured here: cell count max response, cells fed with added oleic acid. The gist of the method: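 Drosophila S3 cells got compounds at several concentrations plus oleic acid (400 uM solution). Laser-scanning cytometry with 488 nm excitation read lipid droplets at 500-530 nm and cells at 575-640 nm. Percent activity was relative to 20 uM Triacsin C.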

Setting [1] is: measured here: cell number channel AC50, cells fed with added oleic acid.
[2] abbreviates: measured here: lipid fluorescence (Fed channel) AC50, cells fed with added oleic acid.

On to `N#Cc1ncc(-c2ccc3c(c2)OCCOCCOCCOCCOCCO3)nc1C#N`, for which the cell number change was -52.4%. Also, the AC50 under setting [1] was 23.1 µM [falling, partial curve, poor fit]. For the same compound, under setting [2], the AC50 is 25.9 µM [falling, partial curve].

As for `c1ccc(CSc2ccc(-c3cccs3)nn2)nc1`, the cell number change was -0.11%. For the same compound, the AC50 under setting [1] was 1.46 µM [rising, partial curve, poor fit]. Under setting [2], the AC50 is 5.8 µM [rising, partial curve, poor fit].

`O=C(Cn1nc(C(F)F)cc1C1CC1)N1CCCC1`: the cell number change was -25.6%.

Consider `CN(CC(=O)NCCc1ccc(F)cc1)Cc1ccc(Br)cc1`, for which the cell number change was -25.7%.

`O=C(NCCN1C(=O)S/C(=C\c2cccc(Cl)c2Cl)C1=O)C1=COCCO1`: the AC50 under setting [2] is 29.1 µM [falling, single point].

Regarding `CC1(C)Cc2c(sc(/N=C/N3CCCCC3)c2C#N)C(C)(C)N1`, the cell number change is -44.6%. Moreover, under setting [1], the AC50 was 1.84 µM [falling, full curve]. Also, under setting [2], the AC50 was 18.4 µM [falling, single point].

For `CCn1cc(Br)c(C(=O)Nc2ccccc2C(=O)OC)n1`, the AC50 under setting [1] is 3.66 µM [rising, partial curve, poor fit].

`COc1ccc(Br)cc1C(=O)Nc1ccc(NC(=O)c2ccco2)cc1`: the AC50 by setting is: under setting [1], 0.184 µM [rising, full curve, poor fit]; under setting [2], 0.146 µM [rising, full curve, poor fit].

On to `O=C(Nc1nnc(S(=O)(=O)N2CCCC2)s1)c1ccccc1Cl`, for which the cell number change was found to be 2.69%. Further, the AC50 under setting [2] was 29.1 µM [rising, single point].

Regarding `COc1cc(C2Oc3cc(C4Oc5cc(O)cc(O)c5C(=O)C4O)ccc3OC2CO)ccc1O` (centres undefined), the cell number change was determined as 27.6%. The AC50 under setting [1] was 4.11 µM [rising, full curve, poor fit]. Further, the AC50 under setting [2] was 13 µM [rising, partial curve].

On to `NC(=O)NC(Cc1ccccc1)C(=O)NCC1(N2CCCCC2)CCCCC1` (centres undefined), for which the cell number change worked out at 3.33%. For the same compound, under setting [2], the half-maximal activity concentration (AC50) is 2.91 µM [rising, full curve, poor fit].

Regarding `CNc1snc(C)c1C(=O)OC(C)C(=O)c1ccc(F)cc1` (centres undefined), the cell number change came out at 13.7%. Under setting [2], the AC50 was 18.4 µM [rising, single point].

On to `O=C(CN1C(=O)c2cccc3cccc1c23)NC1CCCC1`, for which the cell number change was -30.3%. In addition, the AC50 under setting [1] is 29.1 µM [falling, single point].

Consider `O=C(Nc1cccc(Cl)c1)NC1CC2CCC(C1)N2Cc1ccco1` (centres undefined), for which the half-maximal activity concentration (AC50) under setting [1] was 0.58 µM [rising, single point].

On to `O=C(CCCc1nc2ccccc2s1)N1CCN(S(=O)(=O)c2cccs2)CC1`, for which the cell number change came to 31.2%. In addition, the AC50 under setting [1] was 20.6 µM [rising, single point]. The AC50 under setting [2] is 29.1 µM [rising, single point].

On to `N#CCCn1c(SCC(=O)N2CCN(S(=O)(=O)c3ccccc3)CC2)nc2ccccc21`, for which the cell number change is -11.9%. The AC50 under setting [2] was 0.92 µM [rising, full curve].

With `Cc1ccccc1NC(=O)c1ccccc1NC(=O)c1ccccc1F`, the cell number change is 13.7%. Besides, the AC50 under setting [2] is 0.058 µM [rising, full curve, poor fit].

`CC1CCCC(C)N1CCNC(=O)C1CCN(S(=O)(=O)N2CCCCC2)CC1` (centres undefined): the cell number change is -28.3%. Further, the AC50 under setting [1] is 3.66 µM [falling, full curve, poor fit]. Under setting [2], the AC50 was 3.66 µM [falling, full curve].

For `CC(C)(C)OC(=O)N/N=C/c1cc(N=Nc2ccccc2)ccc1O`, the cell number change is -30.9%. For the same compound, the AC50 under setting [1] was 16.4 µM [falling, single point]. Besides, under setting [2], the AC50 is 16.4 µM [falling, single point].

With `COCCn1nnnc1C(c1ccc2ncccc2c1)N1CCN(c2ccccc2F)CC1` (centres undefined), the cell number change stood at 13.7%. The half-maximal activity concentration (AC50) under setting [2] is 2.59 µM [rising, single point].

For `Cc1c(C(=O)N2CCCC2)c(S(=O)(=O)Nc2ccccc2Cl)c(C)n1C`, the cell number change worked out at 1.32%.

Turning to `Cn1c(SCC(=O)c2ccc(F)cc2)nnc1-c1cccnc1`, the cell number change stood at 15.9%. For the same compound, the AC50 under setting [2] is 1.46 µM [rising, full curve].

As for `CCCNC(=O)N[C@@H](Cc1ccccc1)C(=O)OC`, the cell number change is -35.5%. For the same compound, the AC50 under setting [1] is 0.731 µM [falling, full curve]. In addition, the AC50 under setting [2] was 6.51 µM [falling, partial curve].

Take `COc1ccc(OCC(O)CNc2ccc(Br)cc2)cc1` (centres undefined): the cell number change was -23.5%. In addition, under setting [2], the half-maximal activity concentration (AC50) is 0.13 µM [falling, full curve, poor fit].

In the case of `Cc1ccc(C)c(NC(=O)CCN2CCN(c3ccccc3F)CC2)c1`, the cell number change came to 25.7%. Further, the half-maximal activity concentration (AC50) under setting [2] was 29.1 µM [rising, single point].

On to `O=C(Nc1cccnc1)Nc1cc(Cl)cc(Cl)c1`, for which the cell number change is -62.5%. Under setting [1], the AC50 is 25.9 µM [falling, partial curve]. Further, under setting [2], the AC50 is 29.1 µM [falling, single point].

In the case of `CCc1ccc(CN2C(=O)c3ccccc3C2C(=O)NCc2cccnc2)cc1` (centres undefined), the AC50 under setting [2] is 0.13 µM [falling, full curve, poor fit].

Turning to `CC(=O)c1ccc(N2CCN(CC(=O)N(CC(C)C)c3c(N)n(CC(C)C)c(=O)[nH]c3=O)CC2)cc1`, the cell number change was -22.1%. The AC50 under setting [2] is 0.731 µM [falling, full curve].

As to `CC(C)NC(=O)Cn1c(SCC(=O)NC2CCCC2)nc2ccccc21`, the cell number change was 14%. Also, the concentration at half-maximal activity (AC50) under setting [2] was 3.26 µM [rising, partial curve].

Consider `CCOc1ccc(-c2nnn(CC(=O)c3ccc4c(c3)OCCO4)n2)cc1`, for which the cell number change was -22.3%.

Turning to `O=C(O)c1ccc(CN2CCOCC2)o1`, the cell number change turned out to be 26%. Also, the half-maximal activity concentration (AC50) under setting [2] was 0.651 µM [rising, partial curve, poor fit].

For `CCOc1ccc(C(=O)NC2=NCCS2)cc1`, the cell number change is 6.61%.

For `CC[n+]1c(C)cc2c(sc3ccccc32)c1C`, the cell number change was -1.2%.

Turning to `Cc1ccc(S(=O)(=O)n2nc(C)cc2C)cc1`, the cell number change amounted to 27.1%. Besides, the concentration at half-maximal activity (AC50) under setting [2] is 6.51 µM [rising, single point].

On to `COc1cc(/C=N/N2CCN(C3c4ccccc4-c4ccccc43)CC2)ccc1O`, for which the AC50 under setting [2] was 6.51 µM [rising, single point].

With `COc1ccc(C(=O)NCC(=O)O)cc1`, under setting [2], the half-maximal activity concentration (AC50) was 29.1 µM [falling, single point].

With `CC1CCCCC1NCC(=O)Nc1ccccc1-c1ccccc1` (centres undefined), the cell number change is -54.3%. Moreover, the AC50 under setting [1] was 18.4 µM [falling, single point]. Besides, under setting [2], the AC50 was 29.1 µM [falling, single point].

As to `O=C(CSCc1cc(=O)n2nc(C3CC3)sc2n1)Nc1ccc(F)cc1`, the cell number change turned out to be 22.1%. Moreover, the AC50 under setting [2] was 29.1 µM [rising, single point].
